Article PMC4617965
No constants are given. Whether binding was seen depends on the method and setting. Binding seen in cells or lysates may run through a third protein. Some entries that bind do so weakly or less than the wild type.

By UniProt entry, the sequences of proteins in these tests, tags left out.
UniProt Q24562: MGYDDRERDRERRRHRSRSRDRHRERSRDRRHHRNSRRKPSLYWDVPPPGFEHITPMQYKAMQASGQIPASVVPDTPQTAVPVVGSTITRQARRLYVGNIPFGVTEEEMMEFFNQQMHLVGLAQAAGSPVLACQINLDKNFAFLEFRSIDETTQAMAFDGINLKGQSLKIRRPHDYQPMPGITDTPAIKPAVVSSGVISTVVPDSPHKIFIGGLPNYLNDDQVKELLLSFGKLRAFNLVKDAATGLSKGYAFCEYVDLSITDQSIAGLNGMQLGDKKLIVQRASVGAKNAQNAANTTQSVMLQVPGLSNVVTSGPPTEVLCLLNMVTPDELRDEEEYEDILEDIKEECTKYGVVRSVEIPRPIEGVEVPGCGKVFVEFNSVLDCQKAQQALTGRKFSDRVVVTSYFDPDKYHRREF

Target: T1, UPF1 (Drosophila melanogaster) (UniProt Q9VYS3)
T1 sequence: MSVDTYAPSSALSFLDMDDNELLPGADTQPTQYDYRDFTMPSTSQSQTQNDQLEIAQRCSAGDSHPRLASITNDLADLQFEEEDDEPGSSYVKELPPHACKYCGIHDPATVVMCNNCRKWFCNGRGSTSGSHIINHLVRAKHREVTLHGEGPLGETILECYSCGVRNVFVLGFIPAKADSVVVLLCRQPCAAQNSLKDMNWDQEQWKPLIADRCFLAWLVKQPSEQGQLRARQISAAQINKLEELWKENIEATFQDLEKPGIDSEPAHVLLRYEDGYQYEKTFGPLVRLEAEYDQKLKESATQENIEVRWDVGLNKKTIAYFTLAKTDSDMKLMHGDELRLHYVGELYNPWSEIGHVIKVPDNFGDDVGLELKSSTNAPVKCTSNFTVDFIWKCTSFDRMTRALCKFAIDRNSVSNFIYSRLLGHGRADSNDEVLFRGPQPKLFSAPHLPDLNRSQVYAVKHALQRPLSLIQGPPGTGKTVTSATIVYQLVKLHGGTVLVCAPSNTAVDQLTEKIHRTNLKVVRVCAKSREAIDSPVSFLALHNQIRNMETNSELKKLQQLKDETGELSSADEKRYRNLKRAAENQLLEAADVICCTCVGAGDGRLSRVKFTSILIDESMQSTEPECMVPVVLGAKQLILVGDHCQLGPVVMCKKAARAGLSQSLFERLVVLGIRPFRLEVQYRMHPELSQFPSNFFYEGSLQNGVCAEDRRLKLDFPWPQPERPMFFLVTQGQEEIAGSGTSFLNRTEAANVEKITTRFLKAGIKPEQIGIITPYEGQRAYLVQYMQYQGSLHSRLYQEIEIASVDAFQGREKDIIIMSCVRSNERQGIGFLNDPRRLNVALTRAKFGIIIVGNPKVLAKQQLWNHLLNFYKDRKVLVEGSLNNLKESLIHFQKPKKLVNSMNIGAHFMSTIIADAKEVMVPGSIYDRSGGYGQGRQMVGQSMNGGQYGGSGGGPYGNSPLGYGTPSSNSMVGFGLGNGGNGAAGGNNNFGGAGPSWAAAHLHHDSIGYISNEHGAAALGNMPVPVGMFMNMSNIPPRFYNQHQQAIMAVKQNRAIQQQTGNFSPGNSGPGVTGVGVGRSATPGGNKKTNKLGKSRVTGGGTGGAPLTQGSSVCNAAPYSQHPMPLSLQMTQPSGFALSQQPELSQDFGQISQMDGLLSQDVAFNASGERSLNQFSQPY
Test: co-IP; reciprocal co-IP with an alternative tag (Supplemental Fig. 3; Supplemental Methods)

## U2AF50 (from UniProt Q24562 1-416)
  binding: binds
